Test [1] deals with cyclin-dependent kinase 6 (CDK6) (human (endogenous in MHCC-97L, Hep3B, PLC/PRF/5 and Huh7)) (UniProt Q00534). The experiment in a line: co-IP; endogenous proteins; protein lysate incubated with anti-CDK6 (D4S8S) or anti-GSK3β (clone 7) antibody and Protein A agarose beads at 4 °C overnight; normal rabbit or mouse IgG as control; MHCC-97L, Hep3B and lenvatinib-resistant HCC cells; immunoblot.

The chains behind the UniProt entries cited, without tags or fusion partners.
UniProt Q00534: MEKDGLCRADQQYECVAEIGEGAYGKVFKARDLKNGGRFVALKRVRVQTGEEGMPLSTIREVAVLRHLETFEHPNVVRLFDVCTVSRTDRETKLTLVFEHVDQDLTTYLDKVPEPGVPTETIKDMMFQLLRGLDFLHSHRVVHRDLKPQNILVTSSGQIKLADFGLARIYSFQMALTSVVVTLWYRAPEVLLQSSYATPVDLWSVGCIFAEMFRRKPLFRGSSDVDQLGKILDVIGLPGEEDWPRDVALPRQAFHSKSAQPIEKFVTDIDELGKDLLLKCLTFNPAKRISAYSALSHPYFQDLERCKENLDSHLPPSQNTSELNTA
UniProt P49841: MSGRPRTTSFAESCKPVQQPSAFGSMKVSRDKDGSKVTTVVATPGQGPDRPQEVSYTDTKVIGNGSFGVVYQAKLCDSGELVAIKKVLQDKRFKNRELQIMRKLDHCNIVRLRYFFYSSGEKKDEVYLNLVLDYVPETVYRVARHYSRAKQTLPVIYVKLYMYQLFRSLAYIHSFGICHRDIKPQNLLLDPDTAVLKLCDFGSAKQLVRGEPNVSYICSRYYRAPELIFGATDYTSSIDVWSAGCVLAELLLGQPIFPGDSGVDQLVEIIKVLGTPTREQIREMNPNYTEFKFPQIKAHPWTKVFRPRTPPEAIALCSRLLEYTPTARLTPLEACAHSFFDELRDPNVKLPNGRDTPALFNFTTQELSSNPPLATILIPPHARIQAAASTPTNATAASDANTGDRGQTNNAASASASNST

In test [2] the target is GSK3β (human (endogenous in MHCC-97L, Hep3B, PLC/PRF/5 and Huh7)) (UniProt P49841). The description is as above.

Results are given in words; binding and its absence hold for the method and conditions named. Binding seen in cells or lysates may run through a third protein. Some binding calls cover weakened binding; strength is not graded here.

In the case of GSK3β (from UniProt P49841 1-420), the binding result in test [1] was “binds”. Consider “cyclin-dependent kinase 6 (CDK6) (from UniProt Q00534 1-326)”, for which, in test [2], the binding entry is given as “binds”.

These data come from publication PMC10593849.
